Source: US20100260791A1, “CHLAMYDIA ANTIGENS” (President and Fellows of Harvard, priority 2007, published 2010)
Some entries share one result that the patent states for a list of compounds.

Assays:
[1] = system: C. trachomatis-specific CD4^+ murine T cells; assay: IFN-γ ELISA of C. trachomatis-specific CD4+ murine T cells stimulated with peptide-pulsed macrophages; assay type: cell-based, mouse; details: compared to T-lymphocytes treated with a non-antigenic peptide in the same assay; CD4+ murine T cell epitopes
Description: A library of cells or viruses containing polynucleotides encoding C. trachomatis polypeptides, polypeptide fragments, or fusion proteins may be screened to determine which of the polypeptides, polypeptide fragments, or fusion proteins encoded by the polynucleotides are immunogenic. This may be accomplished by contacting each member of the library with a second cell (e.g., a macrophage or antigen presenting cell) capable of endocytosing the cell of the C. trachomatis library, and displaying portions of the expressed polypeptide of the library on the surface of the second cell (see, e.g., U.S. Pat. No. 6,008,415). The second cell is then contacted with a C. trachomatis-specific T cell (e.g., a C. trachomatis-specific CD4^+ or CD8^+ T cell) from an organism previously infected with C. trachomatis. The second cell may also be fixed (e.g., using paraformaldehyde) prior to contacting with a C. trachomatis-specific T cell. A C. trachomatis-specific T cell capable of binding a presented portion of the C. trachomatis protein, will result in secretion of cytokines. […]
In particular, murine H2^b bone marrow-derived macrophages (BMMs) were seeded at a density of 1×10^5 cells/well in 96-well plates. […] Plates were incubated for 18-24 hours at 37° C. and the amount of IFN-γ in the supernatant of each well determined through the use of an IFN-γ ELISA assay (Endogen). […]

[2] = system: C. trachomatis-specific CD8^+ murine T cells; assay: IFN-γ ELISA of C. trachomatis-specific CD8+ murine T cells stimulated with peptide-pulsed macrophages; assay type: cell-based, mouse; details: compared to T-lymphocytes treated with a non-antigenic peptide in the same assay; CD8+ murine T cell epitopes
Description: A library of cells or viruses containing polynucleotides encoding C. trachomatis polypeptides, polypeptide fragments, or fusion proteins may be screened to determine which of the polypeptides, polypeptide fragments, or fusion proteins encoded by the polynucleotides are immunogenic. This may be accomplished by contacting each member of the library with a second cell (e.g., a macrophage or antigen presenting cell) capable of endocytosing the cell of the C. trachomatis library, and displaying portions of the expressed polypeptide of the library on the surface of the second cell (see, e.g., U.S. Pat. No. 6,008,415). The second cell is then contacted with a C. trachomatis-specific T cell (e.g., a C. trachomatis-specific CD4^+ or CD8^+ T cell) from an organism previously infected with C. trachomatis. The second cell may also be fixed (e.g., using paraformaldehyde) prior to contacting with a C. trachomatis-specific T cell. A C. trachomatis-specific T cell capable of binding a presented portion of the C. trachomatis protein, will result in secretion of cytokines. Cytokine secretion (e.g., secretion of IFN-γ, IL-2, or TNF) may be assayed for as known in the art, for example, using an ELISA assay.
In particular, murine H2^b bone marrow-derived macrophages (BMMs) were seeded at a density of 1×10^5 cells/well in 96-well plates. Fourteen to sixteen hours later, an aliquot of a frozen C. trachomatis library was thawed. The media was aspirated from the BMMs and replaced with a library aliquot and 60 μL of fresh RP-10 media. After 1 hour at 37° C., the BMMs were washed with PBS, 100 μL of RP-10 media added, and the cells incubated an additional hour at 37° C. The BMMs were then fixed with 1% paraformaldehyde for 15 minutes and washed extensively with PBS. […] T cells (either C. trachomatis-specific CD4^+ or CD8^+ murine T cells; 1×10^5) were added to each well in 200 μL of RP-10 media. Plates were incubated for 18-24 hours at 37° C. and the amount of IFN-γ in the supernatant of each well determined through the use of an IFN-γ ELISA assay (Endogen). […]

Sequence | increase in IFN-γ production in T-lymphocytes [1] | increase in IFN-γ production in T-lymphocytes [2]
AQGKLIVTNPKSDISFGGRV (listed as Chlamydia trachomatis) [amino acids 67-86 of the CT144 polypeptide] | ≥ 40 fold | 
FSVTNPVVF (listed as Chlamydia trachomatis) [amino acids 103-111 of the CT812 polypeptide] |  | ≥ 40 fold
KSDISFGGRVNLADNTVNYS (listed as Chlamydia trachomatis) [amino acids 77-96 of the CT144 polypeptide] | ≥ 40 fold | 
LNQSNLKRM (listed as Chlamydia trachomatis) [amino acids 112-120 of the CT242 polypeptide] |  | ≥ 40 fold
YQILNQSNL (listed as Chlamydia trachomatis) [amino acids 109-117 of the CT242 polypeptide] |  | ≥ 40 fold
